Strings that start with PEPTIDE1 are HELM notation: dots part the residues, brackets hold end groups and non-standard residues.

Series [1] can be described thus: general procedure: Fmoc solid-phase peptide synthesis; 2-chlorotrityl chloride resin; PyBop, DIPA. To be noted: whole synthesis.
Series [2] is described as follows: general procedure: Fmoc solid-phase peptide synthesis; 2-chlorotrityl chloride resin (1.12 mmol/gr); PyBop, DIPA. As to conditions: whole synthesis, LC-MS.

“PEPTIDE1{[FITC5].[GABA].C.S.S.A.G.S.L.F.C}$PEPTIDE1,PEPTIDE1,3:R3-11:R3$$$V2.0” gave an isolated yield in series [1] of 42%. Also, in series [2], the “final purity (method not given)” value worked out at 95%.

Source of the values: publication PMC5352194 (Oncotarget, 2016).
